According to article doi:10.1101/707661:
No constants are given. Whether binding was seen depends on the method and setting. In cells and extracts the contact can be indirect. A yes stands for co-enrichment or nearness to the bait. Other partners may have been found. For some assays here: Tags and fused reporters may be left off the sequences shown.

By UniProt entry, the sequences of proteins in these tests, tags left out.
UniProt P11387: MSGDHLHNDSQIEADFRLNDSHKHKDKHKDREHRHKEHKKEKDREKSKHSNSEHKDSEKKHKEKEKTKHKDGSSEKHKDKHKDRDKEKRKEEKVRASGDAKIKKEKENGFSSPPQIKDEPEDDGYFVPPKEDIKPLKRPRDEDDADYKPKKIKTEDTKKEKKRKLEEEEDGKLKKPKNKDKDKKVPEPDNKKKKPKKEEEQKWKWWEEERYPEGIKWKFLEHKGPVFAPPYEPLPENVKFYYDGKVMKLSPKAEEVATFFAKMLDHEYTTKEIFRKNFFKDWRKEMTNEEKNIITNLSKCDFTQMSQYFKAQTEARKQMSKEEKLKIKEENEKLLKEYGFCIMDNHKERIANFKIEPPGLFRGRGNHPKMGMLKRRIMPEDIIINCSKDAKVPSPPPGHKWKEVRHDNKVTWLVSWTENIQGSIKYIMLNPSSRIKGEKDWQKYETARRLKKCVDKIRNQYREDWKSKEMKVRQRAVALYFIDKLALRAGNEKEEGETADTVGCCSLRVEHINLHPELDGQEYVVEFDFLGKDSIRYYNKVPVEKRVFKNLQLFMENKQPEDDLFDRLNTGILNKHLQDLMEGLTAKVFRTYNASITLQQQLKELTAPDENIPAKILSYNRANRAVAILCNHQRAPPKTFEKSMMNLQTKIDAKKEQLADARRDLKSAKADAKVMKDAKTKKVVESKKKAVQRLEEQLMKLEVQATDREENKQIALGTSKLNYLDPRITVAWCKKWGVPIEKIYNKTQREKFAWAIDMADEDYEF
UniProt P11388: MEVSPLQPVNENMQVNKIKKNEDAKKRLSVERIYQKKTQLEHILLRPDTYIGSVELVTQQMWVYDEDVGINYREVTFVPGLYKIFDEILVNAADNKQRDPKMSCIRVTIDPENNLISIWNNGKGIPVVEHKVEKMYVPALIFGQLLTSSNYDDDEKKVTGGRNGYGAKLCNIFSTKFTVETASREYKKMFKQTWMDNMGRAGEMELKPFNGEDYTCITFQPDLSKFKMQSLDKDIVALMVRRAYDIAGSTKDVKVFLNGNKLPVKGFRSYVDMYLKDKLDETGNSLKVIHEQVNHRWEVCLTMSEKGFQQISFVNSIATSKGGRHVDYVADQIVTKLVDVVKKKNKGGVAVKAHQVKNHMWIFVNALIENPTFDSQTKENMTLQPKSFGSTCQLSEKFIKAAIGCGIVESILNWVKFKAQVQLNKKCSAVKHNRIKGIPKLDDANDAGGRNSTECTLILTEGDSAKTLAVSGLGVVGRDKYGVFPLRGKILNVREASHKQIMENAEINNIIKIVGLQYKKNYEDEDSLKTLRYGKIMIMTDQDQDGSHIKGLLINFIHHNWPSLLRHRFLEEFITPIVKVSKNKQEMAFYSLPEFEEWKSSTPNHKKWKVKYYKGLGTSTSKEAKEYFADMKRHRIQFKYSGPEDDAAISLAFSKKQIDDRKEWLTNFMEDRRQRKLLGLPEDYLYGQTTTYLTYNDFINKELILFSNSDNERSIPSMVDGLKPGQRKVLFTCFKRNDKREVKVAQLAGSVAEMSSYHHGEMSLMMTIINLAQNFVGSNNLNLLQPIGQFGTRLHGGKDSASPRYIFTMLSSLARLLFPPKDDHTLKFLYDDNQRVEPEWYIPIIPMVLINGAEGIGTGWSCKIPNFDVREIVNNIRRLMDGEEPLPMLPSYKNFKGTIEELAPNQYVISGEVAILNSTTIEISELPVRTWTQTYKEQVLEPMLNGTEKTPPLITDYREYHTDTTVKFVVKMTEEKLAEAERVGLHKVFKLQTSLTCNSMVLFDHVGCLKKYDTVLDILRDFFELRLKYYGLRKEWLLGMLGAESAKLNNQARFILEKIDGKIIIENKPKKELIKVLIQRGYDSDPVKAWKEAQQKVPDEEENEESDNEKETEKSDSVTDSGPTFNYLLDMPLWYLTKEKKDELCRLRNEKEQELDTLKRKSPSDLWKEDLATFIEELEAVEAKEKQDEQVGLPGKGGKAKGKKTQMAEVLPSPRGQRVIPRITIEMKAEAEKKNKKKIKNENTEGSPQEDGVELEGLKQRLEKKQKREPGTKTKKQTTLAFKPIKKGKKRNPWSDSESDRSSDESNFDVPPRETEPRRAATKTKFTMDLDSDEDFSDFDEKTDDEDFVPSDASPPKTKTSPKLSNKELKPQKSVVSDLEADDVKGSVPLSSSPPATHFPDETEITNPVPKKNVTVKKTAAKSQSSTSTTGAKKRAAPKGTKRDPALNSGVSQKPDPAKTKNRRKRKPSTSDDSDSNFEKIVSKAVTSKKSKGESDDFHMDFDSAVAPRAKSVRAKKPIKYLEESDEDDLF
UniProt Q02880: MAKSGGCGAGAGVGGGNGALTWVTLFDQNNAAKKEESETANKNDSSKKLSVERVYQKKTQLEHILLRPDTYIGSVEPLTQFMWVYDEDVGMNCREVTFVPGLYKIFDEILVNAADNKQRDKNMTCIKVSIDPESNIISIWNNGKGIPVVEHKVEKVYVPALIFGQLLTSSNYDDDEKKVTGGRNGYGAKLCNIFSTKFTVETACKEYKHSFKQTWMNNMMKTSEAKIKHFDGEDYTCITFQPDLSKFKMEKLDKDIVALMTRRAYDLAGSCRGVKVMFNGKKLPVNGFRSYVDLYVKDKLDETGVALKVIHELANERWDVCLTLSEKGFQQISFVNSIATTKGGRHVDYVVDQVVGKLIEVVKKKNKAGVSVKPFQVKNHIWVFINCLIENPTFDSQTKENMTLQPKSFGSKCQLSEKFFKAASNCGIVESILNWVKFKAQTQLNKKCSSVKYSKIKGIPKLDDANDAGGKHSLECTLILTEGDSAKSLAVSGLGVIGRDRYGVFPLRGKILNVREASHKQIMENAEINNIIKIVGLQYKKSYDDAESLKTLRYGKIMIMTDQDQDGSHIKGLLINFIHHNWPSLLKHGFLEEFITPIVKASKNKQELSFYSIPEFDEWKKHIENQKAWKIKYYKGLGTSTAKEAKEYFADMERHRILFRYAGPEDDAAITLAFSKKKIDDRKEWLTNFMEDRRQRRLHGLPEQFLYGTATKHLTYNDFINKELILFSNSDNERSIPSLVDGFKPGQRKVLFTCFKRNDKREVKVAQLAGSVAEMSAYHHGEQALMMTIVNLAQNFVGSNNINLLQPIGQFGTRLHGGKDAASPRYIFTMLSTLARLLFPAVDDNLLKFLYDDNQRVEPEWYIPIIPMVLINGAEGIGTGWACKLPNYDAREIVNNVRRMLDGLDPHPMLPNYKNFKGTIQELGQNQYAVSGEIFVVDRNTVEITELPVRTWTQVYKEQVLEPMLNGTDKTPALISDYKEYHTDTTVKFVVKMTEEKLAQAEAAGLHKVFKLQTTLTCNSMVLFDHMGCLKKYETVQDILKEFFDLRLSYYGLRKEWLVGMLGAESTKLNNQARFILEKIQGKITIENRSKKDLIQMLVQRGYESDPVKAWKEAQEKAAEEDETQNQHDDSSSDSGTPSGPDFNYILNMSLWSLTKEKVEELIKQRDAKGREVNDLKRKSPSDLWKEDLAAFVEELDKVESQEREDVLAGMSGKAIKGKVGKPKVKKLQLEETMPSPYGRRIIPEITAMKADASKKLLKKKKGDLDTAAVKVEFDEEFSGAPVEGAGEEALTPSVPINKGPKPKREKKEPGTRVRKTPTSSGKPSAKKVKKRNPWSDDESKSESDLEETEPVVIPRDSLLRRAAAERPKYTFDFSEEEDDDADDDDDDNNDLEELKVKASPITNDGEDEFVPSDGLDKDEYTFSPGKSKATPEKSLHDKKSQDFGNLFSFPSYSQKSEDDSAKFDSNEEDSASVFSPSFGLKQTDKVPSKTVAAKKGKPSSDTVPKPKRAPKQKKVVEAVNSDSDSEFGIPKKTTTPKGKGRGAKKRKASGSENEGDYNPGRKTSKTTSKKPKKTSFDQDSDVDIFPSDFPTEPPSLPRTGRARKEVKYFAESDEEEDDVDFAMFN

T1: FLAG-PIAS4 (human) (UniProt Q8N2W9)
T1 sequence: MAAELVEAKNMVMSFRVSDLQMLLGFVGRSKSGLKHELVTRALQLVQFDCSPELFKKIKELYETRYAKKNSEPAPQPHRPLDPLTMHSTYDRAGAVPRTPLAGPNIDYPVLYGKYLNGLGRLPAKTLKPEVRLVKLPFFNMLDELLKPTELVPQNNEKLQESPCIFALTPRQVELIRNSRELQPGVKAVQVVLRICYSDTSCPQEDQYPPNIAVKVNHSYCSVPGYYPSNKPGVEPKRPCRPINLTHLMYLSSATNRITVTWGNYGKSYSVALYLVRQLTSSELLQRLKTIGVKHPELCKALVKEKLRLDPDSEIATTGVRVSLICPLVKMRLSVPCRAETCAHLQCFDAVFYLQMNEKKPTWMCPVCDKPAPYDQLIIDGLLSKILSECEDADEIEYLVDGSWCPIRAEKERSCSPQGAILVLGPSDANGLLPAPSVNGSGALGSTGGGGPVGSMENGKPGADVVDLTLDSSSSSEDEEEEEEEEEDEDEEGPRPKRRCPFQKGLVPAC


Tests used:
Assay in all cases: affinity purification with mass spectrometry
FLAG-PIAS4 (human) = molecular target: T1, FLAG-PIAS4 (human)
[1] = molecular target: 6×His tagged TOP1 (human) (UniProt P11387)
[2] = molecular target: FLAG tagged TOP2α (human) (UniProt P11388)
[3] = molecular target: FLAG tagged TOP2β (human) (UniProt Q02880)

binding (FLAG-PIAS4 (human)) | binding [1] | binding [2] | binding [3] | Molecule
binds |  |  |  | TOP1 (from UniProt P11387 1-765)
binds |  |  |  | TOP2β (from UniProt Q02880 1-1626)
 | binds | binds | binds | PIAS4 (protein, UniProt Q8N2W9 1-510) MAAELVEAKNMVMSFRVSDLQMLLGFVGRSKSGLKHELVTRALQLVQFDCSPELFKKIKELYETRYAKKNSEPAPQPHRPLDPLTMHSTYDRAGAVPRTPLAGPNIDYPVLYGKYLNGLGRLPAKTLKPEVRLVKLPFFNMLDELLKPTELVPQNNEKLQESPCIFALTPRQVELIRNSRELQPGVKAVQVVLRICYSDTSCPQEDQYPPNIAVKVNHSYCSVPGYYPSNKPGVEPKRPCRPINLTHLMYLSSATNRITVTWGNYGKSYSVALYLVRQLTSSELLQRLKTIGVKHPELCKALVKEKLRLDPDSEIATTGVRVSLICPLVKMRLSVPCRAETCAHLQCFDAVFYLQMNEKKPTWMCPVCDKPAPYDQLIIDGLLSKILSECEDADEIEYLVDGSWCPIRAEKERSCSPQGAILVLGPSDANGLLPAPSVNGSGALGSTGGGGPVGSMENGKPGADVVDLTLDSSSSSEDEEEEEEEEEDEDEEGPRPKRRCPFQKGLVPAC
